Reference: patent US12522562B2, “Intestine-specific partial agonists of farnesoid X receptor and uses thereof” (EWHA DrugDesignHouse Co., Ltd., priority 2022, dated 2026)
“And” between values parts separate entries of the source, which are not always exact repeats. Equal values may be shown once. The name of at least one read-out is uncertain.

Assays:
Test in all cases: Nuclear receptor selectivity panel (PathHunter NHR protein interaction assay)
[1] = target: T1, LXRα (Homo sapiens, UniProt Q13133); conditions: relative to TO901317
T1 sequence (Q13133 1-447): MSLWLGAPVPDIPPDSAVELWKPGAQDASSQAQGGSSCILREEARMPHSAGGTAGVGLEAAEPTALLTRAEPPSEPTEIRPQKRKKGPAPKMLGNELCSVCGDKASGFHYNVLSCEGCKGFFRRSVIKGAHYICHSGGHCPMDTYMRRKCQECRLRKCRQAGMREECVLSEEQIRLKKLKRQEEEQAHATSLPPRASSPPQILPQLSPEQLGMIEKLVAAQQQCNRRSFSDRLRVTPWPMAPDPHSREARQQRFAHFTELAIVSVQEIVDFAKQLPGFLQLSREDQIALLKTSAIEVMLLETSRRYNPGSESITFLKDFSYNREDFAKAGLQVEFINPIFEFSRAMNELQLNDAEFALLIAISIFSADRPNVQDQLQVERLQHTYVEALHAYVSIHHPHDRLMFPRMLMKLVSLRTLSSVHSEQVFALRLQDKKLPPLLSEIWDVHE

[2] = target: T2, RXRγ (Homo sapiens, UniProt P48443); conditions: relative to 9-cis-retinoic acid
T2 sequence (P48443 1-463): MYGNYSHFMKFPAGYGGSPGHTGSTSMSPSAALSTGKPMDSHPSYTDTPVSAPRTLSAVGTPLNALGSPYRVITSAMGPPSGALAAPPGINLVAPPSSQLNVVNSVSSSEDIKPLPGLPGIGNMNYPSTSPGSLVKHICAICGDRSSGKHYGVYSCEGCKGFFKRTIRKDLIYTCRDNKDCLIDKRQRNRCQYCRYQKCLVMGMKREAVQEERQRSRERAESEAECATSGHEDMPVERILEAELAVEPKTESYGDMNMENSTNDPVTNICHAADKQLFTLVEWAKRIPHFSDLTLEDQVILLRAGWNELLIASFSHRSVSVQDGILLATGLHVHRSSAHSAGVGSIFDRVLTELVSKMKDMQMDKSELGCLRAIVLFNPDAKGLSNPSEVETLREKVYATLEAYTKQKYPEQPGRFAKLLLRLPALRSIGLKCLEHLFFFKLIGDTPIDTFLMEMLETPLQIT

[3] = target: T3, PRβ (Homo sapiens, UniProt P06401); conditions: relative to norgestrel
T3 sequence (P06401 1-933): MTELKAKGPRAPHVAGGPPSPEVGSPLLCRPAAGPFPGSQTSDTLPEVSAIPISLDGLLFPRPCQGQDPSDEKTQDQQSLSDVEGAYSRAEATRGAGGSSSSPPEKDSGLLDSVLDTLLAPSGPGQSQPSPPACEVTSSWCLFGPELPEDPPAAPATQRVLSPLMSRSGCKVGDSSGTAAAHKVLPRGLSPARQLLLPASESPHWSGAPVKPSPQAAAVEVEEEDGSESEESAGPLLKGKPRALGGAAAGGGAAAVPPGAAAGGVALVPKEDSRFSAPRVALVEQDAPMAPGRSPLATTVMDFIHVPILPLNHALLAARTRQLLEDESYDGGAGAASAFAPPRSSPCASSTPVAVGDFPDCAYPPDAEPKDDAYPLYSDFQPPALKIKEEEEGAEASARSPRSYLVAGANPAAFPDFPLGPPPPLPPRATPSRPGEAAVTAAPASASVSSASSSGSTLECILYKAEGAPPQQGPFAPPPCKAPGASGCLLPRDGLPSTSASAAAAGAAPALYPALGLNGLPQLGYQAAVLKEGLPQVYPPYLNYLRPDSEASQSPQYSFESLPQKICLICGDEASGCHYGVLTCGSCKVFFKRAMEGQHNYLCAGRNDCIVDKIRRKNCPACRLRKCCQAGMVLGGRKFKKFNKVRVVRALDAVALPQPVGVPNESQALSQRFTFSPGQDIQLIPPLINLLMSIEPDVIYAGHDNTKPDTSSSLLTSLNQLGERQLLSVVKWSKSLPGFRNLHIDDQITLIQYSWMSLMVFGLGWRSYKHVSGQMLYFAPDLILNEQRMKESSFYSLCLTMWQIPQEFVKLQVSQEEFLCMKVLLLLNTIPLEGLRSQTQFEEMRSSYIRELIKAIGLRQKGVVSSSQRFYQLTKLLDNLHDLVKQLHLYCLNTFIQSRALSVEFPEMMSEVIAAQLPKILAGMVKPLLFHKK

[4] = target: T4, LXRβ (Homo sapiens, UniProt P55055); conditions: relative to TO901317
T4 sequence (P55055 1-460): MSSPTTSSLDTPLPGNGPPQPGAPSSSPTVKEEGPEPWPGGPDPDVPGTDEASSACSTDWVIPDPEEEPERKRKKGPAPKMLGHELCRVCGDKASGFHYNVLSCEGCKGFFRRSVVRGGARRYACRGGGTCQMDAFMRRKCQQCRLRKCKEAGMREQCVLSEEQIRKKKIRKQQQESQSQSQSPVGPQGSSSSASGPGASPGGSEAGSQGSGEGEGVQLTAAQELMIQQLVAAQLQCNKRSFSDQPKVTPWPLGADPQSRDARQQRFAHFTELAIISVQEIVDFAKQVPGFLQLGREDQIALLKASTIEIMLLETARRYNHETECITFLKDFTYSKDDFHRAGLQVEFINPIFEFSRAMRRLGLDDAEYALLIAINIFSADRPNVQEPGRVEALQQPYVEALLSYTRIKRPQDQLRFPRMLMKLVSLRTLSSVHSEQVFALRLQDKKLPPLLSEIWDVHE

Structure (SMILES): COC(=O)/C=C/c1cccc(N(Cc2ccc(-c3ccc(N(C)C)cc3)c(C#N)c2)C(=O)C2CCCCC2)c1 [Example 4, (E)-3-(3-((2-cyano-4′-dimethylaminobiphenyl-4-ylmethyl)cyclohexanecarbonylamino)phenyl)acrylic Acid Methyl Ester]
- % max. rel. efficacy at 100 uM [1]: < 3% and 0%
- % max. rel. efficacy at 100 uM [2]: < 3% and −4%
- % max. rel. efficacy at 100 uM [3]: < 3% and 0%
- % max. rel. efficacy at 100 uM [4]: 3%
